PubChem BioAssay AID1159584 | Peter MacCallum Cancer Centre | 2016
The whole screen tested about 18,000 reagents; shown is a part drawn at random. Not all columns of the deposit are shown. Not stated in the record: the amount of reagent, the time to read-out.

- Screen: 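Genes whose loss is lethal only together with E-cadherin loss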 (primary screen)
- Cells: human MCF10A breast epithelial cells, parental and CDH1-null
- Reagent: siRNA against human genes
- Detection: 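Cell viability by CellTiter-Glo ATP luminescence, each line scaled to the mean of mock wells across plates, then CDH1-null over parental ratio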
- Direction: CDH1-null / parental viability ratio: higher = CDH1-null cells survive relatively better than parental

Gene	PubChem SID	CDH1-null / parental viability ratio
LRRC75A	SID134329543	1.09
PPP1R15B	SID134319079	1.1
MRPL54	SID152152577	1.17
OR5H15	SID134329947	0.91
MIR99AHG	SID135624985	0.98
ZP1	SID135625074	1.11
TTC14	SID152148205	0.93
HLA-F	SID135622519	0.91
ELSPBP1	SID135622445	1
PSIP1	SID134319259	1.36
CCDC68	SID134318724	0.72
LMTK1	SID152151616	0.99
VWF	SID152150380	1.09
GABRA2	SID134311582	1.12
IGFALS	SID135622017	1.02
CAND2	SID152155156	1.09
SYNPO	SID135624194	0.66
STK10	SID56478780	1.06
EPHX2	SID152152560	1.05
DTX1	SID134311849	0.92
SMTNL2	SID134326836	1.22
MAP2K2	SID56478689	0.81
ATG13	SID135624054	1.04
ARF1	SID152150873	0.89
CAPN12	SID134311229	0.8
OR4L1	SID135624270	1.45
CRYBA4	SID152149715	0.92
OR8D2	SID135624578	1.25
TNFAIP2	SID152147455	1.14
CTSC	SID135621081	1.47
IFT22	SID134318388	0.99
SPRED3	SID135625436	0.76
RASGRP1	SID135621678	0.99
NDUFAF7	SID135622508	1.06
PNLDC1	SID134322396	1.06
REPIN1	SID152149680	0.91
CSTF2	SID135622090	1.39
CHM	SID152153252	1.15
AOAH	SID134313123	0.93
SCARA3	SID134317472	0.77
ATP4A	SID152148265	0.93
PLCXD2	SID134312287	0.9
RNF123	SID134312164	0.97
GSDMA	SID152155913	0.98
VNN2	SID135622443	1.11
ANKRD44	SID134319738	0.98

Records listed so far whose target name begins with E or e:
Gene	PubChem SID	CDH1-null / parental viability ratio
ELSPBP1	SID135622445	1
EPHX2	SID152152560	1.05
